Reference: patent US9757428B2, “Designed peptides for tight junction barrier modulation” (University of Rochester, priority 2013, dated 2017)
For some assays here: At least one read-out could not be matched to a standard name with certainty. Some of these results come from one statement about several compounds together.

Legend:
[1] = Critical (threshold) concentration for self-assembly, from circular dichroism; format: physicochemical; conditions: Pluronic F-127 solubilized, diluted into buffer; believed from CD detection limit
[2] = Surfactant screening for solubilization of peptides; format: physicochemical; conditions: with 0.12% Pluronic F-127

Substance	threshold (critical) concentration for structure formation [1]	solubilization and dilution into buffer or cell culture media [2]
R-SSVSQSTGQIQSKVFDSLLNLSSTLQATR-NH2 (C-terminal amide; optional biotin-N-propargyl glycine; Peptide for Tight Junction Barrier Modulation) [Peptide 1, R = H or biotin-N-propargyl glycine]	< 1 µM	–
H-SSVSQSTGQIQSKVFDSLLNLSSTLQATR-NH2 [Peptide 1a]	–	without visible precipitation
